Source: PubChem BioAssay AID1347075 (National Center for Advancing Translational Sciences (NCATS), 2019)
The whole screen tested about 400,000 compounds, of which about 5,500 (1.4%) were called active. This list was built around the results that the source calls inconclusive (neither active nor inactive); the mix of calls is not that of the screen. The call rests on the fitted dose curve; in most records, active means well fitted cell-killing curve with a large enough effect; inconclusive means small, poorly fitted or top-dose-only effect, or effect the other way; inactive means flat fitted curve, though single readings scatter. Where the call is inconclusive, the potency comes from a doubtful curve fit.

assay: qHTS assay for MDR1-selective chemotherapeutics: Primary screen using the parental adenocarcinoma cell KB-3-1; settings: KB-3-1 viability, CellTiter-Glo ATP luminescence, 72 h; activity change, negative = cytotoxic: at 46.1 µM (top of the series); further: nearly all actives have a fitted effect of over 60% in size
Procedure, shortened: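 KB-3-1 parental drug-naive adenocarcinoma cells in DMEM/10% FBS, incubated 72 h at 37 C with pin-transferred compounds across a concentration series. Viability by CellTiter-Glo luminescence; concentration-response curves fitted after normalization.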
On the % scale 0 is the no-effect control and ±100 the full control effect; potency means the concentration at half of the fitted maximal effect.

| Structure (SMILES) | Potency | activity change, negative = cytotoxic |
| --- | --- | --- |
| COc1ccc(C(=O)C[n+]2cccc3cc(Cl)ccc32)cc1 | inconclusive: 18.4 µM [cytotoxic, single point] | – |
| CN1CCN(C(=O)c2ccc(CSc3ccc(Cl)cc3)cc2)CC1 | inconclusive: 29.1 µM [cytotoxic, single point] | – |
| COc1ccccc1CNc1nc(NCCOc2ccccc2)c2sccc2n1 | inconclusive: 29.1 µM [cytotoxic, single point] | – |
| C=CCc1cc(Cl)ccc1OCCCNC(C)C | inconclusive: 16.4 µM [cytotoxic, single point] | – |
| CCn1ncc(/C=N\NC(=O)c2cc(-c3ccc(C)cc3C)nc3ccccc23)c1C | inconclusive: 18.4 µM [cytotoxic, single point] | – |
| O=c1c2ccccc2sc2c(CO)ccc(NCCN3CCCCC3)c12 | inconclusive: 29.1 µM [cytotoxic, single point] | – |
| CCCc1nc2ccc(C)cn2c1Cc1cccc(Cl)c1 | – | inactive: -1.14% |
| O=C1CN(C(=O)COC(=O)CCC(=O)c2ccc(F)cc2)c2ccccc2N1 | – | inactive: -27.4% |
| O=C(Nc1nnc(-c2cccs2)o1)c1cc(-c2ccccc2)nc2ccccc12 | inconclusive: 10.3 µM [cytotoxic, partial curve] | – |
| Cc1cc2cc(C(c3nnnn3C(C)(C)C)N(Cc3ccco3)CC3CCCO3)c(=O)[nH]c2cc1C (stereo not drawn) | inconclusive: 31.6 µM [cytotoxic, partial curve, poor fit] | – |
| O=C(O)c1ccc2oc(=O)n(Cc3ccccc3)c2c1 | – | inactive: 1.07% |
| CC(=O)Nc1ccc(NC(=O)c2nc(SCc3ccccc3F)ncc2Cl)cc1 | – | inconclusive: 0% |
| COc1ccc(CNc2nc3c(-c4ccc(C)cc4)nnn3c3ccccc23)cc1 | – | inactive: 3.54% |
| Brc1ccc2c(c1)[C@H]1OCC[C@H]1[C@@H](c1cccs1)N2 | inconclusive: 20.6 µM [cytotoxic, single point] | – |
| Fc1ccccc1N1CCN(c2ncnc3c2nc2n3CCCCC2)CC1 | – | inactive: 0.515% |
| CC1CCCN(S(=O)(=O)c2ccc(NC(=O)Cn3nnc(-c4ccccc4F)n3)cc2)C1 (stereo not drawn) | – | inactive: -14.9% |
| O=C(CCC1CCCN(C(=O)Cn2cnnn2)C1)NCc1ccccc1F (stereo not drawn) | – | inconclusive: -4.8% |
| O=C(Cn1cc(COc2ccc(-n3cccc3)cc2)nn1)NS(=O)(=O)c1ccccc1C(F)(F)F | – | inactive: 0% |
| CCOC(=O)C(=Cc1ccccc1)C(=O)c1ccccc1 | active: 20.6 µM | – |
| COc1ccc2[nH]c(=O)c(CN(CC3CCCO3)C(=O)Nc3ccc(F)cc3)cc2c1 (stereo not drawn) | active: 13 µM | – |
| COc1cc(SC)ccc1C(=O)N1CCN(c2ccccc2OC)CC1 | active: 6.51 µM | – |
| COC(=O)[C@@]12C[C@@H](CC(=O)NCc3cccc(C(F)(F)F)c3)C(=O)N(Cc3ccc4c(c3)OCO4)C1=CCC(C)(C)C2 | inconclusive: 18.4 µM [cytotoxic, single point] | – |
| O=C(Cn1cnc(S(=O)(=O)N2CCCC2)c1)Nc1cccc(F)c1 | inactive | – |
| Cc1cc(S(=O)(=O)c2ccc([N+](=O)[O-])cn2)ccc1Br | inconclusive: 25.9 µM [cytotoxic, single point] | – |
| Cc1ccc2c(c1)nnn2C1CCN(CC(=O)N(c2ccccc2)c2ccccc2)CC1 | inconclusive: 23.1 µM [cytotoxic, single point] | – |

| Structure (SMILES) | Potency | activity change, negative = cytotoxic |
| --- | --- | --- |
| COc1ccc(/C=C2/N=C(SC)NC2=O)cc1OC | – | inconclusive: 31.9% |
| O=C(Nc1ccc(N2CCN(C(=O)c3ccccc3)CC2)cc1)c1cccnc1 | – | inactive: -2.6% |
| Cc1nc2ccc(NC(=O)c3cccs3)cc2c(=O)n1Cc1ccc(Cl)cc1 | inconclusive: 18.4 µM [cytotoxic, single point] | – |
| O=S(=O)(NCc1ccccc1Cl)c1ccc(-c2cnc(C3CC3)o2)cc1 | inconclusive: 23.1 µM [cytotoxic, single point] | – |
| COc1ccc(N2C(=O)CSC23C(=O)N(Cc2ccccc2F)c2ccccc23)cc1Cl (stereo not drawn) | inconclusive: 29.1 µM [cytotoxic, single point] | – |
| O=C(CSc1nc2ccsc2c(=O)n1NC(=O)c1ccccc1)NCc1ccco1 | inconclusive: 18.4 µM [rising, partial curve, poor fit] | – |
| CC(=O)Nc1ccc(NC(=O)c2cccc(-c3cc4ccccc4oc3=O)c2)cc1 | inconclusive: 16.4 µM [rising, single point] | – |
| Cc1cc(C(=O)N/N=C/c2cccnc2)c2ccccc2n1 | inconclusive: 20.6 µM [cytotoxic, single point] | – |
| Cc1cccc(N=C2NC(=O)/C(=C/c3cccn3C)S2)c1 | inconclusive: 29.1 µM [cytotoxic, single point] | – |
| CCN(C(=O)COC(=O)CNC(=O)c1ccc2ccccc2c1)c1c(N)n(Cc2ccccc2)c(=O)[nH]c1=O | – | inactive: -7.65% |
| COc1ccc(C[C@@H]2CN3C(=NC[C@@H]3C)N2C[C@H](C)NC(=O)c2ccc(C)c(Br)c2)cc1 | inconclusive: 29.1 µM [cytotoxic, single point] | – |
| O=CNc1c(Cl)cc2c(c1Cl)Cc1cc([N+](=O)[O-])ccc1-2 | inconclusive: 11.6 µM [cytotoxic, partial curve, poor fit] | – |
| COC(=O)c1ccc(NS(=O)(=O)c2cc(-c3cc(C)no3)ccc2OC)cc1 | active: 5.8 µM | – |
| COc1ccc(N2CCN(c3ncnc4c3cnn4-c3ccc(C)c(Cl)c3)CC2)cc1 | – | inactive: 2.01% |
| CCOC(=O)c1[nH]c(C)c(/C(O)=C2\C(=O)C(=O)N(CCN(C)C)C2c2ccc(C)o2)c1C (stereo not drawn) | inconclusive: 29.1 µM [cytotoxic, single point] | – |
| COC(=O)N/N=C/c1cc(C)n(-c2cccc3ccccc23)c1C | inconclusive: 29.1 µM [cytotoxic, single point] | – |
| C/C(CC(=O)Nc1ccc2c(c1)OCCO2)=N\NC(=O)COc1ccc(C)cc1Br | – | inactive: -0.665% |
| O=C(O)c1ccc2c(c1)ncn2C1CCCC1 | – | inactive: 6% |
| O=C(N/N=C/c1ccc2c(c1)OCO2)c1ccccn1 | inconclusive: 11.6 µM [cytotoxic, partial curve] | – |
| Cc1ccc(NC(=O)CSc2nnc(C)c(=O)n2N)cc1Cl | – | inconclusive: -37.4% |
| Fc1ccc(N2CCN(c3cnc4ccccc4n3)CC2)cc1 | – | inactive: -9.24% |
| CCOC(=O)C1CCN(C(=O)Cn2c(-c3cccs3)cc3cc(Cl)ccc32)CC1 | – | inactive: 0.898% |
| CCc1ccc(C(=O)N2CCN(c3ccc(NC(=O)c4ccco4)cc3)CC2)cc1 | inconclusive: 2.59 µM [cytotoxic, full curve] | – |
| Cc1nn(C(=O)c2ccccc2)c(C)c1S(=O)(=O)N1CCOCC1 | – | inactive: -3.24% |
| COc1ccc(NC(=O)CCC(=O)Nc2cc(OC)c(NC(=O)c3cccs3)cc2OC)cc1 | – | inactive: -1.01% |

| Structure (SMILES) | Potency | activity change, negative = cytotoxic |
| --- | --- | --- |
| Cc1nnnn1CC(=O)Nc1ccccc1[N+](=O)[O-] | – | inactive: -4.06% |
| CC(C)(C)C1CCC2(CC1)SCC(=O)N2c1ccccc1 (stereo not drawn) | – | inactive: 3.64% |
| Cc1cc(NC(=O)COc2cccc(Oc3ccccc3)c2)no1 | inconclusive: 16.4 µM [cytotoxic, partial curve, poor fit] | – |
| CN(C(=O)CSc1nc2ccc(NC(=O)c3ccccc3F)cc2s1)c1ccccc1 | inconclusive: 3.66 µM [cytotoxic, partial curve, poor fit] | – |
| CCN(CC)CCCNC(=O)C1CCN(C(=O)c2oc3cc4sc(N(C)C)nc4cc3c2C)CC1 | – | inactive: 0.867% |
| Cn1cnc(S(=O)(=O)Nc2ccc(OC(F)F)cc2)c1 | – | inactive: -0.0728% |
| Cc1ccc(Cl)cc1N1CCN(Cc2nnnn2Cc2ccco2)CC1 | inconclusive: 16.4 µM [cytotoxic, single point] | – |
| COc1ccc2nc(N/C(N)=N/C(=S)Nc3cccc(C)c3)nc(C)c2c1 | inconclusive: 20.6 µM [cytotoxic, partial curve, poor fit] | – |
| CCOc1ccc(N2CC(C)Cn3c2nc2c3c(=O)n(CC(=O)O)c(=O)n2C)cc1 (stereo not drawn) | – | inactive: 8.76% |
| Cc1ccc(C(=O)Nc2cccc(NC(=O)c3ccc(C)cc3)n2)cc1 | – | inactive: 15.2% |
| CN(CC(=O)Nc1ccccc1C(F)(F)F)C(=O)Cn1c(=O)oc2ccccc21 | – | inactive: 0.0436% |
| COCCn1c(=O)[nH]c(=O)c2c1nc(-c1ccc(-c3ccc(Cl)cc3[N+](=O)[O-])o1)n2Cc1ccccc1 | inconclusive: 25.9 µM [cytotoxic, single point] | – |
| O=C(OCc1c(-c2ccccc2)ncc2ccccc12)c1ccc(Br)cc1 | inconclusive: 16.4 µM [cytotoxic, single point] | – |
| CS(=O)(=O)c1ccc2nc(NC(=O)c3cc(-c4ccccc4)nn3-c3ccccc3)sc2c1 | – | inactive: -15.3% |
| Fc1ccc(Sc2nc(-c3ccccc3)nnc2C(F)(F)F)cc1 | active: 16.4 µM | – |
| Cc1ccnc(SCCn2c(N3CCC(C)CC3)nc3c2c(=O)n(C)c(=O)n3C)n1 | – | inactive: 2.83% |
| COc1ccccc1OCC(=O)Nc1nnc(-c2ccco2)s1 | inconclusive: 29.1 µM [rising, single point] | – |
| Cc1cc2cc(C(=O)N3CCc4c([nH]c5ccccc45)C3c3ccccn3)ccc2o1 (stereo not drawn) | inconclusive: 16.4 µM [cytotoxic, single point] | – |
| COC(=O)C1=C(C)NC(=O)NC1c1ccc(OC)c(OC)c1 (stereo not drawn) | – | inactive: 0.146% |
| CCOC(=O)c1cncc(NC(=O)c2ccccc2)c1 | inconclusive: 8.2 µM [rising, partial curve, poor fit] | – |
| COc1ccc(NC(=O)N/C=C/c2ccc(Cl)cc2)cc1 | inconclusive: 29.1 µM [rising, single point] | – |
| CCCCn1c(N)c(N(Cc2ccccc2OC)C(=O)c2ccc([N+](=O)[O-])s2)c(=O)[nH]c1=O | inconclusive: 29.1 µM [cytotoxic, single point] | – |
| CCCC(=O)Nc1ccc2nc(SCC(=O)N3CCCC3)sc2c1 | – | inactive: 18.2% |

Three of these compounds, set out differently.
CCOC(=O)c1cncc(NC(=O)c2ccccc2)c1
  Potency: inconclusive: 8.2 µM [rising, partial curve, poor fit]
COc1ccc(NC(=O)N/C=C/c2ccc(Cl)cc2)cc1
  Potency: inconclusive: 29.1 µM [rising, single point]
CCCCn1c(N)c(N(Cc2ccccc2OC)C(=O)c2ccc([N+](=O)[O-])s2)c(=O)[nH]c1=O
  Potency: inconclusive: 29.1 µM [cytotoxic, single point]
